Test results: the supplement of paper PMC12067093, “Discovery and optimisation of a covalent ligand for TRIM25 and its application to targeted protein ubiquitination” (Chemical Science, 2025)
Some of the results follow.

Sequences of proteins named here, by UniProt entry; tags and fusion partners are left off. A change or cut given only in a name is not applied to a line headed by its entry.
UniProt Q9Y3F4: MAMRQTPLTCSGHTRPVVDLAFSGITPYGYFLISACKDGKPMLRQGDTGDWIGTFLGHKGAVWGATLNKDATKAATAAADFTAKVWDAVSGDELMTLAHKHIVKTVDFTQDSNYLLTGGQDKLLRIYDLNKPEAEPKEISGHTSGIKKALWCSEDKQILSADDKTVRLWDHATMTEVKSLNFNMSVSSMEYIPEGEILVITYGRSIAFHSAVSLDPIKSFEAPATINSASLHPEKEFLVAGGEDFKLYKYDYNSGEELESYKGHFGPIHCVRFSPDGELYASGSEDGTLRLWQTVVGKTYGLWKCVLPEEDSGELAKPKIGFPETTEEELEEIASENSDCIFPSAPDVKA
UniProt O00186: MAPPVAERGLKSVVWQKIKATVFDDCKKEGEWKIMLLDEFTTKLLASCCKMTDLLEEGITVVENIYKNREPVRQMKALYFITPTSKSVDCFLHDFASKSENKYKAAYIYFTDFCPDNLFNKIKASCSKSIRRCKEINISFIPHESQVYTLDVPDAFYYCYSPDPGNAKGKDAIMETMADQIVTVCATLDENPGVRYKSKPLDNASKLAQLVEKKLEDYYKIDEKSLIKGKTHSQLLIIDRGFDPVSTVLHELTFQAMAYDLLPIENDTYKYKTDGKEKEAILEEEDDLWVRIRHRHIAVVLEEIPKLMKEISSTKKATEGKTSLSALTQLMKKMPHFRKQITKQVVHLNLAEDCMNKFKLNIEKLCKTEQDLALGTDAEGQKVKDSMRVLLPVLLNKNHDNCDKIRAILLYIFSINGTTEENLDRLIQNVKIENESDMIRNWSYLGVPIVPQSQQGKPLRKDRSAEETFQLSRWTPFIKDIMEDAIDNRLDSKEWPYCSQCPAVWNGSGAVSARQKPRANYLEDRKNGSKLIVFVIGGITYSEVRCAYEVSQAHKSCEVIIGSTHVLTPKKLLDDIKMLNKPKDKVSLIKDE
UniProt O95425, whole entry, looked up: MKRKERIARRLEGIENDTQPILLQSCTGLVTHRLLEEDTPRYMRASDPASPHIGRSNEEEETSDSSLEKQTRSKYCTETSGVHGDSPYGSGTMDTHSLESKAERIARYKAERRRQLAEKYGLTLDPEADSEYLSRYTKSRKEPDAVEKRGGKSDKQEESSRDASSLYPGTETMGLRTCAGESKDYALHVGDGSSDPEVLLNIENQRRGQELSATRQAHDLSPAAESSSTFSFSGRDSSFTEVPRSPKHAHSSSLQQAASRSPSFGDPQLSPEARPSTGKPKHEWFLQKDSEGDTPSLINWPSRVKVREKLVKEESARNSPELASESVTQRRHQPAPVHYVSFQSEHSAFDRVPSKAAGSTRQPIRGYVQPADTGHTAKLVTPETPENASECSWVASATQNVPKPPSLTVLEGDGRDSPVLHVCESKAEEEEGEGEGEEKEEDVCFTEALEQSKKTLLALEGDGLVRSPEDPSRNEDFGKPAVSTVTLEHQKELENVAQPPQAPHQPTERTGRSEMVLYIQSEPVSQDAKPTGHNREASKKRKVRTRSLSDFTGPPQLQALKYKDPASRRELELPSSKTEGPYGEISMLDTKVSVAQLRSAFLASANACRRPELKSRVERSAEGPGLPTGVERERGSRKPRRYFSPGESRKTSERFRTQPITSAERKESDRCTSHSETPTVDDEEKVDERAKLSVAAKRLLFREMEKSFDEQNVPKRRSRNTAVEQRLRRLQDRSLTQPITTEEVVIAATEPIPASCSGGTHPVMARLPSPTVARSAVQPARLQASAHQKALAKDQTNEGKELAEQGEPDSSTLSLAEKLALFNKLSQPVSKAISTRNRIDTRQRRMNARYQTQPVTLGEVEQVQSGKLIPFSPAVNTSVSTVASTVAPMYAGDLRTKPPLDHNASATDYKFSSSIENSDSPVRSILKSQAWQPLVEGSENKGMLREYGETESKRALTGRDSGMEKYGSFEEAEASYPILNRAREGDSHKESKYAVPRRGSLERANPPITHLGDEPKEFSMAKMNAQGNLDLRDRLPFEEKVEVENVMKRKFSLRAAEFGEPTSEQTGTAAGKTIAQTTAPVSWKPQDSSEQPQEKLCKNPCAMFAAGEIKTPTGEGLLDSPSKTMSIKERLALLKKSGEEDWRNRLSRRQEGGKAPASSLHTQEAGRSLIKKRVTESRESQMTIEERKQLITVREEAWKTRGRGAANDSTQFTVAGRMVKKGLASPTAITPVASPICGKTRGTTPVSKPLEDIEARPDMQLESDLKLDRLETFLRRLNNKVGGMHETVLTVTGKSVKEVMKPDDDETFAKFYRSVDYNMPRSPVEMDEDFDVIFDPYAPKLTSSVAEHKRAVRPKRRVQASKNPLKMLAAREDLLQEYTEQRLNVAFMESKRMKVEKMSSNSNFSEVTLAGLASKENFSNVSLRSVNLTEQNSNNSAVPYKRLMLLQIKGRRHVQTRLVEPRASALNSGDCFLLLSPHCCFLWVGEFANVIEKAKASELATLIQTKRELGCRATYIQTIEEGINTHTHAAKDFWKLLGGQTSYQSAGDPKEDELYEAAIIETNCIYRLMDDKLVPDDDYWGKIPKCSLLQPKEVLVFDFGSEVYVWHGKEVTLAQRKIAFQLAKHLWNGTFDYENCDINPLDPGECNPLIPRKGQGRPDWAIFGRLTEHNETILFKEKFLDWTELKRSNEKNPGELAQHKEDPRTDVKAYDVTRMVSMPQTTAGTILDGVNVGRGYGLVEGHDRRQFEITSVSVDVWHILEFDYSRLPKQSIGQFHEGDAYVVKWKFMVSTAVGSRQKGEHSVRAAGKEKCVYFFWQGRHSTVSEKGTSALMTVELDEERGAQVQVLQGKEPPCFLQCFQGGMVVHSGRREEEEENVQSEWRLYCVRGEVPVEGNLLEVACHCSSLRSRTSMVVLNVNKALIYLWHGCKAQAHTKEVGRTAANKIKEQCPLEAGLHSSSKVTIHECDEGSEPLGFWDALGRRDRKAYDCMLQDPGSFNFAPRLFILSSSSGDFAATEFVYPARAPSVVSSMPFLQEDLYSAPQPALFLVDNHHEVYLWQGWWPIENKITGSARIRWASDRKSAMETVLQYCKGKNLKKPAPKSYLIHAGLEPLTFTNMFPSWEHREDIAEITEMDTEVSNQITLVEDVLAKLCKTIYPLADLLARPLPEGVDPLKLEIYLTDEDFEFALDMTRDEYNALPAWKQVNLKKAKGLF
UniProt Q8NBK3: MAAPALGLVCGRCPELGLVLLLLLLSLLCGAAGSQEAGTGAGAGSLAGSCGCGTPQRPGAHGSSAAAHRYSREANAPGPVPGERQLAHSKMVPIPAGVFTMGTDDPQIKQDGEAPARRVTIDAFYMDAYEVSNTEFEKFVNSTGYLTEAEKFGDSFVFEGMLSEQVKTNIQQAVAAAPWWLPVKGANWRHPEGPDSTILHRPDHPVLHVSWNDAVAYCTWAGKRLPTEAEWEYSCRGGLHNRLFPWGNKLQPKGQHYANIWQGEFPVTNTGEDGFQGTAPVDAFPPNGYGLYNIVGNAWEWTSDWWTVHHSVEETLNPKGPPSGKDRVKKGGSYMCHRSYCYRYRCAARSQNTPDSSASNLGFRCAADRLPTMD
UniProt Q9BXP5: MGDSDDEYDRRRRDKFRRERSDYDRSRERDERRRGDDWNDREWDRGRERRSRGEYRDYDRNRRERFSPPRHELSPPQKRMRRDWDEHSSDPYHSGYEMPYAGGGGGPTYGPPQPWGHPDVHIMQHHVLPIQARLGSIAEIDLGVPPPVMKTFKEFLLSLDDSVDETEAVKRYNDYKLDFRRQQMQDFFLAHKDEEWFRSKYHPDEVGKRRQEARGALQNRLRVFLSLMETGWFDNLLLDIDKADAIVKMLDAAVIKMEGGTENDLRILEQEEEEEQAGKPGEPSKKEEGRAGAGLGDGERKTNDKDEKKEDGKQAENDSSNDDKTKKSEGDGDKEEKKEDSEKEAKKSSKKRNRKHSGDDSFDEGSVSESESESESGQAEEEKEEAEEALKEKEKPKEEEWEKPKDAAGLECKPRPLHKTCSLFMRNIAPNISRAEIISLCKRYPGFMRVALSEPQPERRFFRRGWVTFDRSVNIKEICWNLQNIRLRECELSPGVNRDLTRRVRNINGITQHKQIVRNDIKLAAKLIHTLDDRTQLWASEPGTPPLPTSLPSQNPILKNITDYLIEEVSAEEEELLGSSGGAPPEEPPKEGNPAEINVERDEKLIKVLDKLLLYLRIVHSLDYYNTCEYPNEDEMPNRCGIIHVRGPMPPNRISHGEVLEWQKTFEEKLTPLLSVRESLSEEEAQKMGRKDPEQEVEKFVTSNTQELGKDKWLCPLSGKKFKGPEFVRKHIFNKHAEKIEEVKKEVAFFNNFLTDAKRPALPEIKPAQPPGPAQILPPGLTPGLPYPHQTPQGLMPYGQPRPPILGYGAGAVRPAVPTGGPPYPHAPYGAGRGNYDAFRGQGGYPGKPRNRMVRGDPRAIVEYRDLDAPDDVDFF
UniProt Q658P3: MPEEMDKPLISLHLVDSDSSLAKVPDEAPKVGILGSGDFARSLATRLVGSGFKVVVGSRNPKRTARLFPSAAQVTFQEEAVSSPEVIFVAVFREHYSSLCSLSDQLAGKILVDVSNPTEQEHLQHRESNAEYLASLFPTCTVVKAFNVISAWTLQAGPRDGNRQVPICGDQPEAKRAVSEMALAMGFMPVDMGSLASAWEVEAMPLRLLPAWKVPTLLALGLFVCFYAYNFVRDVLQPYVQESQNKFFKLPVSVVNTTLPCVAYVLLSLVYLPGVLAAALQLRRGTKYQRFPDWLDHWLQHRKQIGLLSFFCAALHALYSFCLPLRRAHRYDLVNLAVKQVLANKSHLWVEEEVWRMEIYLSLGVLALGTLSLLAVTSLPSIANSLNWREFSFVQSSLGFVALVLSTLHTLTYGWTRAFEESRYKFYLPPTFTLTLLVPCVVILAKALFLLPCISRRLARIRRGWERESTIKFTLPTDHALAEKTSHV
UniProt Q08945, whole entry, looked up: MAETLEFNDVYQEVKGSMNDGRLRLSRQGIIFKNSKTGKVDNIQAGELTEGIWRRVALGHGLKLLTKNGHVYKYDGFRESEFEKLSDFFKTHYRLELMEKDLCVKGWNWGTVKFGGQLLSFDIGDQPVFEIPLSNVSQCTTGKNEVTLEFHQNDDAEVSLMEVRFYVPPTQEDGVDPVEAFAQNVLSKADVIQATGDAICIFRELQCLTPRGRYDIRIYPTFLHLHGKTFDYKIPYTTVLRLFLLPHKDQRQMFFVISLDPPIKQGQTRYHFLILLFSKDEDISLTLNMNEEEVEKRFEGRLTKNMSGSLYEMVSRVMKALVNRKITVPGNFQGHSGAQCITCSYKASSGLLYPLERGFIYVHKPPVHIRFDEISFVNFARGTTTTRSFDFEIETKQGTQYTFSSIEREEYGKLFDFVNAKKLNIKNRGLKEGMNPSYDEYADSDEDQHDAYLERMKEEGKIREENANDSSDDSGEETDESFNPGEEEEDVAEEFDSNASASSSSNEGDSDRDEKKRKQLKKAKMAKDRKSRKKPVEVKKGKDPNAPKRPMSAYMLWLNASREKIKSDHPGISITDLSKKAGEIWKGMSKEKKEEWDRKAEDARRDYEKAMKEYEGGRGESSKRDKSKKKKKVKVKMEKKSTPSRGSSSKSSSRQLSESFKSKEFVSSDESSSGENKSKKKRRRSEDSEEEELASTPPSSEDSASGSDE
UniProt P42226: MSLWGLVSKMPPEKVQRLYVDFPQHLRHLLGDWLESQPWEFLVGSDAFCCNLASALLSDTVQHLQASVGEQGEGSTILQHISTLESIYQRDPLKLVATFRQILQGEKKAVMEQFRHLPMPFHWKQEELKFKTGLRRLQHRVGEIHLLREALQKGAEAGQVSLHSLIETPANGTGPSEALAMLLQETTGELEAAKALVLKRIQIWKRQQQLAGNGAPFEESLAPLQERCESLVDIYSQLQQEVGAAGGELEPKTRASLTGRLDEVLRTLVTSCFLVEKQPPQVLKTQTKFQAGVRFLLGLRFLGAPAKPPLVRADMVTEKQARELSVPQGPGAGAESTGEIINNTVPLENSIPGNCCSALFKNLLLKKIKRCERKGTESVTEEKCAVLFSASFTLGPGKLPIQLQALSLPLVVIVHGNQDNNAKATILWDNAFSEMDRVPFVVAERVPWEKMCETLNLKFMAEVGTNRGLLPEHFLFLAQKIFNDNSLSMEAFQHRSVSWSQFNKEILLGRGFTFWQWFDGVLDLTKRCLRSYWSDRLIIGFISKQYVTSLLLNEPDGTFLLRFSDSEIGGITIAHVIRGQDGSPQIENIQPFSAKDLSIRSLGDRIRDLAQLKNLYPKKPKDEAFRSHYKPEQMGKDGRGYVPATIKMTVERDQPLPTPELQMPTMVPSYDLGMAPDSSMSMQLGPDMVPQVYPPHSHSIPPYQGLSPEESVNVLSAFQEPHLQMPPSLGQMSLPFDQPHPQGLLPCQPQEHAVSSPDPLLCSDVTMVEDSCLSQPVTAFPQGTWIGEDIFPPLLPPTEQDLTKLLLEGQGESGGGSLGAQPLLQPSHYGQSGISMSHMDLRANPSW

Compound: Cc1cc(ccc1-c1ccccc1)C(=O)N1CCCN(CC1)C(=O)CCl [compound 10]
Assay: probe-labelled cysteine peptide fold change vs DMSO (competition) (log2 fold change); higher = less target engagement (more negative = stronger competition)
Details: THP-1, incubation time: 4 h
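Note: competitive profiling in live THP-1 cells: cysteine peptides tagged with an iodoacetamide desthiobiotin (IA-DTB) probe, intensity after compound treatment relative to DMSO-treated cells.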

## STRAP_Q9Y3F4_270_GHFGPIHCVR (UniProt Q9Y3F4)
10 µM
  probe-labelled cysteine peptide fold change: 0.194
50 µM
  probe-labelled cysteine peptide fold change: 0.0693

## STXBP3_O00186_546_CAYEVSQAHK (UniProt O00186)
10 µM
  probe-labelled cysteine peptide fold change: 0.00129
50 µM
  probe-labelled cysteine peptide fold change: 0.0519

## SVIL_O95425_1966_VTIHECDEGSEPLGFWDALGR (UniProt O95425)
10 µM
  probe-labelled cysteine peptide fold change: -0.0832
50 µM
  probe-labelled cysteine peptide fold change: 0.0363

## SUGP2_Q8IX01_417_NCFFEIIKPFDK (UniProt Q8IX01)
10 µM
  probe-labelled cysteine peptide fold change: -0.328
50 µM
  probe-labelled cysteine peptide fold change: -1.49

## STRN_O43815_765_CYIASAGADALAK (UniProt O43815)
10 µM
  probe-labelled cysteine peptide fold change: -0.0453
50 µM
  probe-labelled cysteine peptide fold change: -0.216

## SUMF1_Q8NBK3_235_RLPTEAEWEYSCR (UniProt Q8NBK3)
10 µM
  probe-labelled cysteine peptide fold change: -0.206
50 µM
  probe-labelled cysteine peptide fold change: -0.144

## SRRT_Q9BXP5_628_IVHSLDYYNTCEYPNEDEMPNR (UniProt Q9BXP5)
10 µM
  probe-labelled cysteine peptide fold change: 0.181
50 µM
  probe-labelled cysteine peptide fold change: 0.111

## STXBP2_Q15833_44_ILSSCCK (UniProt Q15833)
10 µM
  probe-labelled cysteine peptide fold change: 0.214
50 µM
  probe-labelled cysteine peptide fold change: -0.507

## STEAP3_Q658P3_140_ESNAEYLASLFPTCTVVK (UniProt Q658P3)
10 µM
  probe-labelled cysteine peptide fold change: -0.0165
50 µM
  probe-labelled cysteine peptide fold change: -0.192

## SRSF3_P84103_10_DSCPLDCK (UniProt P84103)
10 µM
  probe-labelled cysteine peptide fold change: -0.0282
50 µM
  probe-labelled cysteine peptide fold change: -0.63

## SSRP1_Q08945_340_ITVPGNFQGHSGAQCITCSYK (UniProt Q08945)
10 µM
  probe-labelled cysteine peptide fold change: 0.0901
50 µM
  probe-labelled cysteine peptide fold change: 0.293

## SUPT6H_Q7KZ85_1132_AELSCR (UniProt Q7KZ85)
10 µM
  probe-labelled cysteine peptide fold change: 0.0623
50 µM
  probe-labelled cysteine peptide fold change: 0.00294

## STAT6_P42226_228_CESLVDIYSQLQQEVGAAGGELEPK (UniProt P42226)
10 µM
  probe-labelled cysteine peptide fold change: 0.0404
50 µM
  probe-labelled cysteine peptide fold change: -0.0978
